At least one peptide structure holds a part that was inferred or is arguable (an end, a ring closure or a residue). No end group written: not given here.
Test: Immunization of rabbits with peptide and purification of anti-Rb IgGs
Assay type: in vivo
Details: New Zealand white rabbits, 10 mg intramuscularly plus boosts, no carrier protein

EEIYLKNKDLDARLFLDHDK [Rb-12]
antibodies obtained by immunization: high-affinity antibodies
